PubChem BioAssay AID720591 (Broad Institute, 2013)
Hit rate of the full screen: of about 1,200 compounds, about 60 (5%) were called active. Roughly 1% stayed inconclusive and do not appear here.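 The calls were made as follows: active = Decreasing signal and fitted IC50 at most twice the top valid tested dose; inconclusive = Bad fit or a level curve showing 30 to 70% inhibition; inactive = the rest.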 The list shows a part of the results. Entries with a potency or affinity are not part of this list.

The chains behind the UniProt entries cited, without tags or fusion partners. Where a name states a change or a piece, a line headed by the entry shows the natural chain unless it says otherwise.
UniProt Q9NXA8: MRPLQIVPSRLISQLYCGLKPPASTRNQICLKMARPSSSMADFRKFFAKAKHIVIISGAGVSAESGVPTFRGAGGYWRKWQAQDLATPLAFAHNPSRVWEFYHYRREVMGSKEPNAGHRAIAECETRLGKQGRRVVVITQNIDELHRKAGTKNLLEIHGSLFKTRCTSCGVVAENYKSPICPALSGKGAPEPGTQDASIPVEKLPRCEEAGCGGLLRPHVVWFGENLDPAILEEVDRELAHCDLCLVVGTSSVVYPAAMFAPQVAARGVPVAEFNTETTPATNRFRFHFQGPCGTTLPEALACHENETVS

Each compound was assayed against NAD-dependent protein deacylase sirtuin-5, mitochondrial (Homo sapiens) (UniProt Q9NXA8) (assay: sirtuin-5 deacylation blockers, concentration series – biochemical, fluorescence imaging, cherry-pick, set 5, dose response (AID 720591;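 also: 0% = median of neutral control wells and -100% = median of positive control wells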)). Settings: Purified SirT5, succinyl-peptide AMC, trypsin-coupled fluorescence; at 15 µM (top of the series) unless noted.

Activity change, negative = inhibition, inactive:
Cc1ccc(-n2c(SCC(=O)N(C)C)nnc2-c2ccco2)cc1 10.6%, CCCSc1ccc([C@@H]2[C@H]3C(=O)N(CC)C(=O)[C@H]3[C@]3(C(=O)OC)CCCN23)cc1 3.88%, Cc1cc(=O)[nH]c2c1c(C)nn2-c1ccccc1 -32.5%, Cc1ccc(N2CC(C(=O)Nc3ccc(S(=O)(=O)Nc4nccs4)cc3)CC2=O)cc1C (stereo not drawn) -9.3%, Cc1cc(NC(=O)CCC(=O)N(Cc2ccccc2)C(C(=O)NC2CCCC2)c2ccco2)no1 (stereo not drawn) -6.35%, CCOC(=O)c1nn(-c2ccccc2)cc1O 1.73%, Cc1cc(NC(=O)CCC(=O)N(Cc2ccco2)C(C(=O)NC2CCCC2)c2ccc(F)cc2)no1 (stereo not drawn) -29.1%, NCC(O)CN(c1ccccc1)c1ccccc1 (stereo not drawn) 0.799%, CCOc1ccc(-n2c(SCC(N)=O)nnc2-c2ccco2)cc1 10.9%, COc1ccc(C(=O)OC(C)C(=O)NCC2CCCCC2)cc1S(=O)(=O)N1CCOCC1 (stereo not drawn) -28.7%, Cc1noc(C)c1-c1ccc(C(=O)Nc2cccc(C(F)(F)F)c2)c2occc12 -0.448%, COc1ccc([C@H]2N[C@]3(CCCN(Cc4cccn4C)C3=O)[C@H]3C(=O)N(C)C(=O)[C@@H]23)cc1 1.22%, Cc1cc(NS(=O)(=O)c2ccc(NC(=O)COc3ccc(Br)cc3)cc2)nc(C)n1 -24%, CCN(CC(=O)Nc1c(F)cccc1F)C(=O)c1ccc2c(c1)NC(=O)C(C)S2 (stereo not drawn) -21.9%, CC(C)Cc1ccc(-c2cc3nc(NCCc4ccc(S(N)(=O)=O)cc4)ccn3n2)cc1 -12%, CCCn1nc(Oc2nc(N(C)C)nc(N(C)C)n2)ccc1=O -20.2%, CCCN1CCN(C(=O)c2ccc3nc(CC)c(CC)nc3c2)CC1 2.44%, O=C(NC1CCCCC1)C(c1ccco1)N(C(=O)c1csnn1)c1ccc(Cl)cc1 (stereo not drawn) 6.29%, O=C(Cc1ccc(Cl)cc1)Nc1ccc(CN2CCCCC2)cc1 4.66%, CC(C)C(=O)Nc1cccc(COc2ccccc2CN(Cc2ccccc2)C(=O)OC(C)(C)C)c1 -27.9%, C#CC1(NC(=O)NC(C)(C)C)CCCCC1 3.86%, CC(C)NC(=O)Nc1cccc2c1O[C@H](CN(C)S(=O)(=O)c1cccs1)[C@@H](C)CN([C@H](C)CO)C2=O -16.3%, CN(C)CCNC(=O)c1cccc(S(=O)(=O)Nc2ccccc2F)c1 14%, CCOC(=O)CSc1nc2cc(OCC)ccc2cc1C#N -25.9%, O=C(NCc1ccncc1)c1nc(-c2ccc(C(F)(F)F)cc2)no1 -5.2%, CC(C)OC(=O)c1cccc(C(=O)O)n1 -29.2%, COc1ccc(CNC(=O)CCn2ccc3cc(S(=O)(=O)N4CCCC4)ccc32)cc1 -22.9%, Cc1ccccc1CNC(=O)Cn1ccc2cc(S(=O)(=O)N3CCCCCC3)ccc21 4.05%, O=S(=O)(Nc1ncccn1)c1ccc(Cl)cc1 17.2%, O=C(CSc1nnc(-c2ccco2)n1-c1ccccc1)NCCc1ccccc1 35.8%, O=S(=O)(NCc1ccc2c(c1)OCO2)c1ccccc1F 4.96%, COCCNC(=O)C(c1ccc(F)cc1)N(Cc1ccco1)C(=O)CCC(=O)Nc1ccccn1 (stereo not drawn) 4.45%, O=C(c1cc(COc2ccc(F)cc2Cl)on1)N1CC[C@@H]2CCCC[C@H]2C1 -20.1%, O=C(Nc1nc(-c2ccc(Cl)cc2Cl)cs1)c1ccc(OCC2CCCO2)cc1 (stereo not drawn) 1.14%, Cc1ccccc1C(=O)N1c2ccccc2OCC1C(C)(C)C (stereo not drawn) -31.7%, O=C(NNc1ccccc1C(F)(F)F)c1sccc1Br -31.3%, COc1ccccc1C(=O)NCCC(=O)Nc1ccc(OC(F)(F)F)cc1 -3.84%, Fc1ccc(CNC2CCN(Cc3ccccc3)CC2)cc1 -18.3%, O=C(Nc1ccccc1Cl)c1cccs1 -20.1%, Cc1ccc(CNc2nc(NC(C)C)nc3ccsc23)c(C)c1 -0.124%, Cn1c(SCc2nc(-c3ccc(Cl)cc3)no2)nnc1-c1cccs1 -25.4%, C#CC1(NC(=O)NC(C)C)CCCCC1 36.4%, CN(C)CCCN(C(=O)c1ccco1)c1nc2ccc(F)cc2s1 42.9%, CO/N=C(\C(=O)N[C@@H]1C(=O)N2C(C(=O)O)=C(COC(C)=O)CS[C@H]12)c1csc(N)n1 (stereo in doubt) -15.9%, O=S1(=O)CC(N2CCCC2)CN1Cc1cn(Cc2ccccc2)nn1 (stereo not drawn) -2.42%, Cn1ccnc1SC(C(=O)O)c1ccccc1 (stereo not drawn) -10.4%, O=C(Nc1ccccc1F)c1cc2c(s1)-c1ccccc1S(=O)(=O)C2 -14.1%, Cc1sc(NC(=O)Cn2[nH]c(=O)c3ccccc3c2=O)nc1-c1ccccc1 -2.7%, C[C@H]1COc2cc(NCCO)ccc2S(=O)(=O)N1 19.8%, CC(C)N1CCN(Cc2cnc(-c3ccccc3)s2)CC1CCO (stereo not drawn) 35.2%, Cn1cnnc1SCC(=O)Nc1ccc2ccccc2c1 2.92%, O=C1CC(N2CCC(c3nc4ccccc4[nH]3)CC2)C(=O)N1c1ccccc1F (stereo not drawn) 4.09%, Cc1cc(C)c(NC(=O)C2CCN(C(=O)c3ccco3)CC2)c(C)c1 -25.5%, NC(=O)C1Cc2ccccc2CN1C(=O)c1cc(C2CC2)nn1-c1ccccc1 (stereo not drawn) -10.6%, CC(C)(C)NC(=O)C(c1ccccn1)N(C(=O)c1csnn1)C1CCCC1 (stereo not drawn) -0.148%, O=C(CSc1nnc(-c2ccco2)n1-c1ccccc1)NCc1ccco1 15.6%, COCCCNC(=O)c1ccc(CN2CCc3ccccc3C2)cc1 -25.4%, CC1COc2ccccc2N1C(=O)c1ccc(F)cc1 (stereo not drawn) 2.89%
